The assay deals with T1, myc-DGKθ (UniProt P52824).
T1 sequence: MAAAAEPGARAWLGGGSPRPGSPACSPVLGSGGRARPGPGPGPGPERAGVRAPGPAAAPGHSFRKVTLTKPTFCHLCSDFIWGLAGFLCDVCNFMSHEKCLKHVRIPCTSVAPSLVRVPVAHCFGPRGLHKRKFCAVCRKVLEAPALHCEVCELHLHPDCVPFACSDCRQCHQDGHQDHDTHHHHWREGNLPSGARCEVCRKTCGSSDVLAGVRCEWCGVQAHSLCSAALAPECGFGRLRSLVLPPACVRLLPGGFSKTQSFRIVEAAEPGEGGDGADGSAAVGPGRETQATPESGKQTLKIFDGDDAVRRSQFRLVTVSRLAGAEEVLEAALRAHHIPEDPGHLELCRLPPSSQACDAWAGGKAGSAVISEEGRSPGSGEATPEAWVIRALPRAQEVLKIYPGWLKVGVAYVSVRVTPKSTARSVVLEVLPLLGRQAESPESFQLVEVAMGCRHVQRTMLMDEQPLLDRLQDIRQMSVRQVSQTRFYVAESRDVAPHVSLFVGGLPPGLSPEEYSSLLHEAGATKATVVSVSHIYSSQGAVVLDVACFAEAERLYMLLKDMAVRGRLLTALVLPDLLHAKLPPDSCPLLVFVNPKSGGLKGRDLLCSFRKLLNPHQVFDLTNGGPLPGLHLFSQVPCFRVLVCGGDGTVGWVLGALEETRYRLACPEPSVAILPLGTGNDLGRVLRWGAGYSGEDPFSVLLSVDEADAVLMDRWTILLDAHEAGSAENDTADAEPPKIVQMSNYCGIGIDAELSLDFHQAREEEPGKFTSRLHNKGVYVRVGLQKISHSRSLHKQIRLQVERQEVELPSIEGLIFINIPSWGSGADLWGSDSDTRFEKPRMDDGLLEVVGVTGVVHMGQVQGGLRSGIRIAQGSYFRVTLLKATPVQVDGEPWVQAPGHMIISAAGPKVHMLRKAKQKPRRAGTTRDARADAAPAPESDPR
In words: co-IP; HEK293FT transfected with pRK5-myc-DGKθ alone or with each interactor's plasmid; lysis in 1% NP40, 5 mM NaF, 5 mM NaPPi, 1 mM EDTA, 1 mM EGTA in PBS; anti-myc antibody and protein A/G beads; Western blot for the interactor.

The chains behind the UniProt entries cited, without tags or fusion partners. Where a name states a change or a piece, a line headed by the entry shows the natural chain unless it says otherwise.
UniProt P61765: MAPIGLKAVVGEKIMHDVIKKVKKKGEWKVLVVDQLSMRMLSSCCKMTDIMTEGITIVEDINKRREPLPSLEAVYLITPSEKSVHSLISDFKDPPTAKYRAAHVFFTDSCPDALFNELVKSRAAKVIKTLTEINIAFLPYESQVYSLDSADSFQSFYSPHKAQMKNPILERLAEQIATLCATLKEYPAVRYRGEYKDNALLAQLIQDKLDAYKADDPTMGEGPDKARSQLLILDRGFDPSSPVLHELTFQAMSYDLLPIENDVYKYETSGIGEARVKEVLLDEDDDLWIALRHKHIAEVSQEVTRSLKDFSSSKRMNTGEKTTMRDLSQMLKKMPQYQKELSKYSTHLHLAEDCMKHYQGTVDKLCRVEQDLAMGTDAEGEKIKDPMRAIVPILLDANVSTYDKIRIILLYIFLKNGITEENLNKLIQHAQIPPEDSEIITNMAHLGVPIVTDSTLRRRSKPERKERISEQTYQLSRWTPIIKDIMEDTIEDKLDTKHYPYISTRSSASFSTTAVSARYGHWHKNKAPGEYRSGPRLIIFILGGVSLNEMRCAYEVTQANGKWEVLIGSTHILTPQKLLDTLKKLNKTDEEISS

No constants are given. Whether binding was seen depends on the method and setting. Binding seen in cells or lysates may run through a third protein. Binding calls can cover weak binding; strength is not graded here. Tags and fused reporters may be left off the sequences shown.

With “Munc18-1b (tagged, overexpressed in HEK293FT) (from UniProt P61765)”, the binding entry was “binds”.
